Assay results reported in patent US11649218B2, “C-Abl tyrosine kinase inhibitory compound embodiments and methods of making and using the same” (The USA, as represented by the Secretary, Dept. of Health …, priority 2018, dated 2023).
For at least one compound, name, drawing or mass did not settle the structure.

System: APP/PSEN1 mice
Assay: APP/PSEN1 AD mice model, water maze, Barnes maze and brain histology
Settings: water maze

O=C1Nc2cc(OC(F)(F)F)ccc2Oc2ccc(-c3ccnc(N4CCNCC4)c3)cc21 [NCGC00373060, 2-(2-(Piperazin-1-yl)pyridin-4-yl)-8-(trifluoromethoxy)dibenzo[b,j][1,4]oxazepin-11(10H)-one]
cognitive decline in APP/PSEN1 mice: protects APP/PSEN1 mice against cognitive decline
